Assay results: publication PMC7102954, “A crucial RNA-binding lysine residue in the Nab3 RRM domain undergoes SET1 and SET3-responsive methylation”
No constants are given. Whether binding was seen depends on the method and setting. In cells and extracts the contact can be indirect. A yes stands for co-enrichment or nearness to the bait. Other partners may have been found.

Sequences of proteins named here, by UniProt entry; tags and fusion partners are left off.
UniProt Q00416: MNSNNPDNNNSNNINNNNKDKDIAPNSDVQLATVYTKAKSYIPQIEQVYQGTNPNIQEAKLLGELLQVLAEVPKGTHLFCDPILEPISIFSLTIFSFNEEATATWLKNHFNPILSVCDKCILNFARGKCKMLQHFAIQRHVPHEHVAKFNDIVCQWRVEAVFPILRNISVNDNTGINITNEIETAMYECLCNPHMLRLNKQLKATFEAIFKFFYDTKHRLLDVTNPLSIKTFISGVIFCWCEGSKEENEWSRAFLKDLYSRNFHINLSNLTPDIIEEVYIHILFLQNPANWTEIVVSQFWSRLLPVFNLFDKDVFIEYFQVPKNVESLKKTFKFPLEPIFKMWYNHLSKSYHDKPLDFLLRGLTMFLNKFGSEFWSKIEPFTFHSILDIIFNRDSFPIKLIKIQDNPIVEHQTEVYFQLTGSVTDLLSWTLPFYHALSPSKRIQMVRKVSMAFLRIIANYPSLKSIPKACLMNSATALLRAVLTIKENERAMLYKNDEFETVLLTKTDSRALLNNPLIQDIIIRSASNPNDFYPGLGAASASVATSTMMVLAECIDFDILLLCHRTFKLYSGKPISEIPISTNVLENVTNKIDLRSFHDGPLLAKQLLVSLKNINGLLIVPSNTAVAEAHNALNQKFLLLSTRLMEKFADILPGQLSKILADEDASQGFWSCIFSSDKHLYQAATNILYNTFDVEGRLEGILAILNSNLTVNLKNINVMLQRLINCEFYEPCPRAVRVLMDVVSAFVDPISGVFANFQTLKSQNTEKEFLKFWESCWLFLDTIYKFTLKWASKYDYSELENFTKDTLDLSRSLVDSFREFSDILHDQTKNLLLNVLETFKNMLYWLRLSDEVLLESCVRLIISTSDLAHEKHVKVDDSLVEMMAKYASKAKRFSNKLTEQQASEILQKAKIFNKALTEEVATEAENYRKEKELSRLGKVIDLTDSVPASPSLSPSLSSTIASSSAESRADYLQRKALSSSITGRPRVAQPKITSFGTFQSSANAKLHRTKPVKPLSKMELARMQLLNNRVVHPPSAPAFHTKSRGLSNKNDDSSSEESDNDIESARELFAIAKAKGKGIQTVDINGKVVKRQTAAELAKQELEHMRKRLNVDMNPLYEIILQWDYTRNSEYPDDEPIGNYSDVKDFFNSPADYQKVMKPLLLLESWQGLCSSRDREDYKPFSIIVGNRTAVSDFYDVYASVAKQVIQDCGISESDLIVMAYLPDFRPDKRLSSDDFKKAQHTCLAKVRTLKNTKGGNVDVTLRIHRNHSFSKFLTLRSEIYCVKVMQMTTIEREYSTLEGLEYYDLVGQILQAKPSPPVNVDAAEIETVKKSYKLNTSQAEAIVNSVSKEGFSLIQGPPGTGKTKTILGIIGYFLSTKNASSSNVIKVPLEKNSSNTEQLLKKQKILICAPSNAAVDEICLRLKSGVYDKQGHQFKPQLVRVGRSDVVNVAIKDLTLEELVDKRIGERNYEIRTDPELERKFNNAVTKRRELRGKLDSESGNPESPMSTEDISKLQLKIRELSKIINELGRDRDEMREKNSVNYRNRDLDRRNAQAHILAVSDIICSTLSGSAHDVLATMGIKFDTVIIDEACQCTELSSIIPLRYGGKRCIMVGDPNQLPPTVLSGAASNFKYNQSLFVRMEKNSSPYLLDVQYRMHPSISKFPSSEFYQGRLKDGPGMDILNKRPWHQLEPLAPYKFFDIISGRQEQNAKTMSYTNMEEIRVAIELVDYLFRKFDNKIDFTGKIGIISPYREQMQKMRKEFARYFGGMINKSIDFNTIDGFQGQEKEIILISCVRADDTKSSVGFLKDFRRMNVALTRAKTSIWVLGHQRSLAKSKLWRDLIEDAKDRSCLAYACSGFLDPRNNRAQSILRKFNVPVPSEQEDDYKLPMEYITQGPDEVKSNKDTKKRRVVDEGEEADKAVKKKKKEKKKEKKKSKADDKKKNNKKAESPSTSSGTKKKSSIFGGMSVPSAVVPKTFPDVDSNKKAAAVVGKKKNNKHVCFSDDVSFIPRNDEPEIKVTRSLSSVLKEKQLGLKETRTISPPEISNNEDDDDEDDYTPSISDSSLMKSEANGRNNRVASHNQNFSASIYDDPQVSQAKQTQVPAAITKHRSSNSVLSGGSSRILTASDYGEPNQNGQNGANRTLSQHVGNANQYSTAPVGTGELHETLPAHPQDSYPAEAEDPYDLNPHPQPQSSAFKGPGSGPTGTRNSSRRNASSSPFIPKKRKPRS

Biological target: T1, Nab3-TAP (S. cerevisiae) (UniProt P38996)
T1 sequence: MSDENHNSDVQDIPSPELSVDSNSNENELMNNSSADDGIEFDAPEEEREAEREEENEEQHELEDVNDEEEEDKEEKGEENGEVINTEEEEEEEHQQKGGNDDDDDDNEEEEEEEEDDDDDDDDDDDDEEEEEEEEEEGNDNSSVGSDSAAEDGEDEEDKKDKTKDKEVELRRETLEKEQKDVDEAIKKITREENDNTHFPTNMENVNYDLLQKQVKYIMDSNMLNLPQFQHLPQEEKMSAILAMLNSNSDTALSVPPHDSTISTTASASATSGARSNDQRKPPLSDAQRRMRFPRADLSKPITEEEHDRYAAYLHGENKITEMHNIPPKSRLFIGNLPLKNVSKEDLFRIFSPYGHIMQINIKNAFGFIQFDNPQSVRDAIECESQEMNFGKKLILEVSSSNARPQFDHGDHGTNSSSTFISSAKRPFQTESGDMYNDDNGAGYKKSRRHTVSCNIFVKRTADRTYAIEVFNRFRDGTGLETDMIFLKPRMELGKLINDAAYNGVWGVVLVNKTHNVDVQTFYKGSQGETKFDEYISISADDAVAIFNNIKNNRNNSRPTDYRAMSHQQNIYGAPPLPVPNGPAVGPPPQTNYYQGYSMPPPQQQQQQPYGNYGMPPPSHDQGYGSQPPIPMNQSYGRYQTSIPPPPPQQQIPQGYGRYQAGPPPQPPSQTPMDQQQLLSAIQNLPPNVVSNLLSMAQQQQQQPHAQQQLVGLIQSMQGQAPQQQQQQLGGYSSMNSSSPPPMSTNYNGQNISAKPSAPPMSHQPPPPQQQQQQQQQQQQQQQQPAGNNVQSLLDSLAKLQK
Experiment: affinity purification with mass spectrometry; two-step TAP purification of Nab3-TAP from yeast lysate (IgG Sepharose, TEV elution; calmodulin Sepharose, EGTA elution); Coomassie-stained SDS-PAGE gel and LC-MS/MS of the purified complex

Molecule: Sen1 (from UniProt Q00416 1-2231)
- binding: binds

B1: Nrd1 (protein, UniProt P53617 1-575)
chain: MQQDDDFQNFVATLESFKDLKSGISGSRIKKLTTYALDHIDIESKIISLIIDYSRLCPDSHKLGSLYIIDSIGRAYLDETRSNSNSSSNKPGTCAHAINTLGEVIQELLSDAIAKSNQDHKEKIRMLLDIWDRSGLFQKSYLNAIRSKCFAMDISNNTANTASQQLSLDPKQRSKQILSNLKKSPPLNLNISLPTDLTSTDPAKQQAALFQVIAALQKHFKTLPSHTSVGTVAPPQAHTITEYGSRRERERERERYNSRRNRSRSPPAPFSQPSTGRKDRYPSVAQDQYSIGAPNTTFGTNNHHLYPDELNVSNNPHYRPKPVSYDSTLPPDHIKVYSRTLFIGGVPLNMKEWDLANVLKPFAEVQSVILNNSRKHAFVKVYSRHEAENVLQNFNKDGALPLRTRWGVGFGPRDCCDYQHGYSIIPMHRLTDADKKWSVSAQWGGTSGQPLVTGIVFEEPDIIVGEGVSSKAISQKMPTDSGRNGPRSGKPNKSGSISSISPVPYGNAPLASPPPQQYVQPMMQQPYGYAPNQPLPSQGPAAAAPPVPQQQFDPTAQLNSLMNMLNQQQQQQQQS
- binding: binds
